Results reported in US8124380B2 (priority 2003, dated 2012).

Legend:
[1] = general procedure: peptide synthesis; Fmoc Pal Peg Ps resin; conditions: whole synthesis, scale 0.1 mmol

Substance | conjugation yield (peptide synthesis; conjugation step) [%] | final HPLC purity (peptide synthesis; conjugation step, 230 nm) [% pure] | conjugation yield (peptide synthesis; conjugation step, run 1) [%] | conjugation yield (peptide synthesis; conjugation step, run 2) [%] | other results
Maleimido Activated PADRE Lys | – | – | – | – | final HPLC purity (peptide synthesis; whole synthesis, 214 nm): 94% pure; crude mass [1]: 157 mg; isolated mass [1]: 107 mg; isolated yield [1]: 61%
PADRE (thiomethyl)carbonylaminoethyl α-L-rhamnopyranosyl-(1→2)-α-L-rhamnopyranosyl-(1→3)-[α-D-glucopyranosyl-(1→4)]-α-L-rhamnopyranosyl-(1→3)-2-acetamido-2-deoxy-β-D-glucopyranosyl-(1→2)-α-L-rhamnopyranosyl-(1→2)-α-L-rhamnopyranosyl-(1→3)-[α-D-glucopyranosyl-(1→4)]-α-L-rhamnopyranosyl-(1→3)-2-acetamido-2-deoxy-β-D-glucopyranoside | 44 | 100 | – | – | –
PADRE (thiomethyl)carbonylaminoethyl α-L-rhamnopyranosyl-(1→2)-α-L-rhamnopyranosyl-(1→3)-[α-D-glucopyranosyl-(1→4)]-α-L-rhamnopyranosyl-(1→3)-2-acetamido-2-deoxy-β-D-glucopyranosyl-(1→2)-α-L-rhamnopyranosyl-(1→2)-α-L-rhamnopyranosyl-(1→3)-[α-D-glucopyranosyl-(1→4)]-α-L-rhamnopyranosyl-(1→3)-2-acetamido-2-deoxy-β-D-glucopyranosyl-(1→2)-α-L-rhamnopyranosyl-(1→2)-α-L-rhamnopyranosyl-(1→3)-[α-D-glucopyranosyl-(1→4)]-α-L-rhamnopyranosyl-(1→3)-2-acetamido-2-deoxy-β-D-glucopyranoside | 67 | 100 | – | – | –
PADRE-Lys-(thiomethyl)carbonylaminoethyl α-D-glucopyranosyl-(1→4)-α-L-rhamnopyranosyl-(1→3)-2-acetamido-2-deoxy-β-D-glucopyranoside | – | 100 | 58 | 62 | –
PADRE-Lys-(thiomethyl)carbonylaminoethyl α-L-rhamnopyranosyl-(1→2)-α-L-rhamnopyranosyl-(1→3)-[α-D-glucopyranosyl)-(1→4)]-(α-L-rhamnopyranosyl-(1→3)-2-acetamido-2-deoxy-β-D-glucopyranoside | 46 | 100 | – | – | –
PADRE-conjugate of 2-aminoethyl hexasaccharide (neoglycopeptide) | – | 100 | 58 | 53 | –
